Positions count from the first letter of the chain named. No constants are given. Whether binding was seen depends on the method and setting. In cells and extracts the contact can be indirect. Some results given as binding are weak or reduced against the parent protein; the word gives no strength. For part of these data: Tags and fused reporters may be left off the sequences shown.
Tests used:
[1] = target: T1, FLAG-tagged borealin W70E/F74E mutant (human) (UniProt Q53HL2); assay: co-IP; 293T cells co-transfected with FLAG-tagged borealin (WT or mutant) and HA–Cdh1, 10 µM MG132 for 5 h; extracts immunoprecipitated with monoclonal antibody against FLAG, immunoblotting
T1 sequence: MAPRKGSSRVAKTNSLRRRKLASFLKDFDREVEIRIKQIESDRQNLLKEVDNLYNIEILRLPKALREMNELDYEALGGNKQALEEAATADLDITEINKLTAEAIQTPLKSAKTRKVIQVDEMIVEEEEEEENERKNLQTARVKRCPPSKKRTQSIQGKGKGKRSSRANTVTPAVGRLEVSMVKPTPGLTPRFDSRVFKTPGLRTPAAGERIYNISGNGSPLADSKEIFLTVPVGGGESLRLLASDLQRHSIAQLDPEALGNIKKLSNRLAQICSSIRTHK

Protein sequences, listed by entry. Tags and fused reporters are not part of them.
UniProt Q9UM11: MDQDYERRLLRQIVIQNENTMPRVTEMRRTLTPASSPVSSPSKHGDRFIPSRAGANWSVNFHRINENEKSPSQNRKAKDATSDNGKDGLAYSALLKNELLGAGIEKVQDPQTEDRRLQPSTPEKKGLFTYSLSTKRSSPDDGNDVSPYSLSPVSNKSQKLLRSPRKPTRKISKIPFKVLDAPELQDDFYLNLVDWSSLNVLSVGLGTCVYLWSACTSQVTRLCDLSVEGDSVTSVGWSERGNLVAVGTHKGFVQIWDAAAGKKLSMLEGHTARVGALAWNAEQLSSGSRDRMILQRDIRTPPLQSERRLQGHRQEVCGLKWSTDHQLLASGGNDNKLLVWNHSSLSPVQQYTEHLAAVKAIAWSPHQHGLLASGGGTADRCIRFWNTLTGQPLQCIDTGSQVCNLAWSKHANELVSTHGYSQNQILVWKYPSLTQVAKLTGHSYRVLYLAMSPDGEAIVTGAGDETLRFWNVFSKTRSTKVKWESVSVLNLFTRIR

[2] = target: T2, FLAG-tagged wild-type (WT) borealin (human) (UniProt Q53HL2); assay: as above
T2 sequence: T1 sequence with E70W, E74F

[3] = target: T3, FLAG-tagged borealin 5E mutant (L21E/F24E/L25E/F28E/V32E) (human) (UniProt Q53HL2); assay: as above
T3 sequence: T1 sequence with L21E, F24E, L25E, F28E, V32E, E70W, E74F

[4] = target: T1, FLAG-tagged borealin W70E/F74E mutant (human); assay: co-IP; borealin deletion and point mutants with Cdh1 (Fig. S3B, Fig. S4C); legends not shown
[5] = target: T4, borealin Δ18–39 mutant (human) (UniProt Q53HL2); assay: as above
T4 sequence: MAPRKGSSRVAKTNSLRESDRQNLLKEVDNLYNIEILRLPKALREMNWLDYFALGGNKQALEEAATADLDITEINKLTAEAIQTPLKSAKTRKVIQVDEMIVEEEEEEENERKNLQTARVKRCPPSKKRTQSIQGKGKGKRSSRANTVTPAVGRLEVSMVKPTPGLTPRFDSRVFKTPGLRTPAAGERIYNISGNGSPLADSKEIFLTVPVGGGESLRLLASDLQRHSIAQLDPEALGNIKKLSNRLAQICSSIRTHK

[6] = target: T5, GST-tagged wild-type (WT) borealin (human) (UniProt Q53HL2); assay: pull-down; GST-tagged borealin on glutathione resin (GST SpinTrap) incubated with 15 µl IVT Cdh1 for 2 h at 4°C in binding buffer (10 mM Tris-HCl pH 7.6, 150 mM NaCl, 0.5 mM EDTA, 10 mM NaF, 0.1% Nonidet P-40); eluate blotted with anti-Cdh1; only the target purified
T5 sequence: T1 sequence with E70W, E74F

Row | binding [1] | binding [2] | binding [3] | binding [4] | binding [5] | binding [6] | Substance
1 | binds | binds | binds | binds | binds | – | HA-tagged Cdh1 (from UniProt Q9UM11 1-496)
2 | – | – | – | – | – | binds | in vitro translated (IVT) Cdh1 (from UniProt Q9UM11 1-496)

From publication PMC7520452
